About 7,700 (2.3%) of roughly 330,000 compounds were called active. Inconclusive results, whose numbers are uncertain, are shown with a selection of clear calls. Calls come from the whole dose curve; as a rule, active = well fitted inhibition curve with a large enough effect; inconclusive = small, poorly fitted or top-dose-only effect, or effect the other way; inactive = flat fitted curve, though single readings scatter. Potencies beside an inconclusive call are fits to weak or partial responses and may not hold up.
Experiment: qHTS screen for small molecules that inhibit ELG1-dependent DNA repair in human embryonic kidney (HEK293T) cells expressing luciferase-tagged ELG1; note: nearly all actives have a fitted effect of over 55% in size
Settings: HEK293T ELG1-luciferase reporter, luminescence, 16 h, DNA damage induced by 5-fluorouridine; series mostly up to 46.1 µM
Outline: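 5-Fluorouridine DNA damage + compound/DMSO, 2,000 cells/well, 16 h, 37 °C/5% CO2. ONE-Glo, 30 min RT, luminescence. Readout = decrease in reporter signal.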
Potency is the fitted concentration of half-maximal effect.

SMILES	Potency
CS(=O)(=O)N1CCN(c2ccccc2[N+](=O)[O-])CC1	inactive
Cc1sc(NC(=O)C2=COCCO2)nc1-c1ccc(Cl)cc1	inconclusive: 10.3 µM [activator, single point]
COc1ccc(Nc2cc(Nc3cccc(OC)c3)ncn2)cc1	inconclusive: 20.6 µM [activator, partial curve, poor fit]
CCc1nnc(NC(=O)c2cnccn2)s1	inconclusive: 29.1 µM [activator, single point]
CCCc1nnc(NC(=O)CCC(=O)NCc2ccccc2Cl)s1	inconclusive: 23.1 µM [activator, single point]
COC(=O)C[C@H](NC(=O)Cn1cnc2c(OCc3ccccc3)ncnc21)C(=O)OC	inconclusive: 29.1 µM [activator, partial curve, poor fit]
COC(=O)CNC(=O)C1CCN(S(=O)(=O)c2cccc3nsnc23)CC1	inconclusive: 16.4 µM [activator, partial curve, poor fit]
CC(=O)c1ccc(N2CCN(Cc3nc(Cc4ccccc4)no3)CC2)cc1	inconclusive: 16.4 µM [inhibitor, single point]
NS(=O)(=O)c1ccc(-c2c(-c3ccccc3)sc3ccccc23)cc1	inconclusive: 29.1 µM [activator, partial curve, poor fit]
O=C(CSc1cccc2cccnc12)Nc1ccc(S(=O)(=O)N2CCOCC2)cc1	inactive
COc1cccc(NC(=O)c2ccc(CN3CCOCC3)cc2)c1	inconclusive: 16.4 µM [activator, partial curve]
Cn1c(=O)c2c(ncn2Cc2cc(-c3ccccc3)no2)n(C)c1=O	active: 18.4 µM
CCOc1ccc(OCCC(=O)N(CC)CC(=O)NCc2ccc(Cl)cc2)cc1	inactive
Cc1cc(C(=O)Nc2ccc(N3CCCC3)c(Cl)c2)ccc1[N+](=O)[O-]	inactive
Cc1oc(-c2ccccc2)nc1CS(=O)CC(=O)NC1CCCCCC1 (stereo not given)	inactive
Cc1ccsc1C(=O)OCC(=O)c1cc(C)n(CC2CCCO2)c1C (stereo not given)	inconclusive: 0.291 µM [activator, partial curve]
c1ccc(CCNc2nc(-c3ccncc3)nc3ccccc23)cc1	active: 14.6 µM
Cc1ccc(NC(=O)C(=S)NCc2ccco2)cc1	inconclusive: 20.6 µM [activator, partial curve]
O=C1c2ccccc2C(Nc2ccc3c(c2)OCCO3)N1Cc1ccco1 (stereo not given)	inconclusive: 29.1 µM [inhibitor, single point]
C[C@H](CO)N1C[C@H](C)[C@@H](CN(C)C(=O)Nc2ccc(F)cc2)Oc2ccc(NS(C)(=O)=O)cc2C1=O	inactive
COc1ccc(-n2c(-c3ccc(Br)cc3)c[n+]3c2CCC3)cc1	active: 1.83 µM
O=C(CN1C(=O)C2CCCN2c2ncc(Cl)cc21)NCc1ccc2c(c1)OCO2 (stereo not given)	inconclusive: 11.6 µM [inhibitor, partial curve, poor fit]
CCCCn1c(-c2ccccc2)nnc1-c1ccccc1	inconclusive: 29.1 µM [inhibitor, single point]

Sorted by molecular weight (smallest number first): three of the compounds above.
SMILES	Potency
CCCCn1c(-c2ccccc2)nnc1-c1ccccc1	inconclusive: 29.1 µM [inhibitor, single point]
Cc1sc(NC(=O)C2=COCCO2)nc1-c1ccc(Cl)cc1	inconclusive: 10.3 µM [activator, single point]
COC(=O)C[C@H](NC(=O)Cn1cnc2c(OCc3ccccc3)ncnc21)C(=O)OC	inconclusive: 29.1 µM [activator, partial curve, poor fit]

Next part

SMILES	Potency
COc1cccc2cc(C(=O)NCc3ccco3)c(=Nc3ccc(C(=O)O)cc3)oc12	inconclusive: 16.4 µM [activator, partial curve]
NC(=O)c1c(NC(=O)C2CC=CCC2C(=O)O)sc2c1CCCCC2 (stereo not given)	inactive
O=C(NN1C(=O)c2ccccc2NC12CCCCC2)c1ccccc1	inconclusive: 2.59 µM [inhibitor, partial curve]
O=C(COc1ccc(S(=O)(=O)N2CCCC2)cc1Cl)NCc1ccco1	inactive
COc1cc(CNc2ccc(N3CCCCC3)cc2)ccc1OCC(=O)NC(C)(C)C	active: 9.2 µM
O=C(Nc1ccc(N2CCOCC2)c(Cl)c1)c1ccccc1F	inconclusive: 2.31 µM [activator, full curve]
CCCCCCNC(=O)N[C@@H](C(=O)NCCC[C@H]1CN2C(=NC[C@@H]2Cc2ccccc2)N1CCc1cccc(OC)c1)C(C)C	inconclusive: 10.3 µM [activator, partial curve]
Oc1ccc(/C=N/n2c(-c3ccco3)csc2=Nc2cccnc2)c(O)c1	inconclusive: 25.9 µM [inhibitor, partial curve, poor fit]
CC1(C)NC(=O)N(CC(=O)N2CCN(S(=O)(=O)c3cc(Cl)ccc3Cl)CC2)C1=O	inactive
O=C(NC12CC3CC(CC(C3)C1)C2)c1ccc(Br)o1	inactive
c1ccc(-c2nnc(SCCC3OCCCO3)o2)cc1	inconclusive: 14.6 µM [activator, partial curve]
COc1cc2c(cc1OC)CN(C(=O)CCOc1ccccc1)CC2	inactive
Cc1nc2ccc(NC(=O)c3sccc3C)cc2s1	inconclusive: 3.66 µM [activator, partial curve]
Cc1ccc(NC(=O)CNCc2cccs2)cc1Br	inconclusive: 9.2 µM [activator, partial curve]
Cc1ccc(NC(=O)C(=Cc2ccc(C(=O)O)cc2)C(=O)Nc2ccc(C)cc2C)c(C)c1	active: 16.4 µM
CCOC(=O)N1CCN(c2cc(NCCC(=O)O)c3c4c(onc24)-c2ccccc2C3=O)CC1	inconclusive: 0.58 µM [inhibitor, partial curve]
COc1cccc2cc(C(=O)NCc3ccc(Cl)cc3)c(=N)oc12	inactive
COC(=O)C1CCC(C)(C(=O)Nc2ccccc2)C1(C)C (stereo not given)	inconclusive: 6.51 µM [inhibitor, single point]
CC(=O)N1CCN(C(=O)c2ccc(Cl)c(S(=O)(=O)N3CCc4ccccc43)c2)CC1	inactive
O=C(CCN1C(=O)/C(=C/C=C/c2ccccc2)SC1=S)Nc1ccccn1	inconclusive: 8.2 µM [activator, partial curve]
O=C(Nc1ccccc1C(=O)NCc1ccccc1)c1ccccc1Br	inconclusive: 29.1 µM [inhibitor, single point]
Cc1csc(=O)n1CCC(=O)OCC(=O)Nc1cc([N+](=O)[O-])ccc1Cl	inconclusive: 0.58 µM [activator, single point]

Reference: PubChem BioAssay AID504467 (National Center for Advancing Translational Sciences (NCATS), 2011)
